# Measured values taken from paper PMC7819943, “Rice protein-binding microarrays: a tool to detect cis-acting elements near promoter regions in rice”.
# By UniProt entry, the sequences of proteins in these tests, tags left out.
# UniProt Q0JBA9, entry or part of it: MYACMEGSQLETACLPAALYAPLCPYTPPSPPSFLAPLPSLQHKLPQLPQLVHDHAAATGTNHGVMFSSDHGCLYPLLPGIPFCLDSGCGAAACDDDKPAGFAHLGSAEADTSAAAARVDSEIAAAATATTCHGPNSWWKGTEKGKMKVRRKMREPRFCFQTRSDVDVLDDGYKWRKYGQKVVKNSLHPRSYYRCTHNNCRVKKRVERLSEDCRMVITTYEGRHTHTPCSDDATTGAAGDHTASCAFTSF
# The other results are listed elsewhere or left out.
# Biological target: OsWRKY34 (Oryza sativa, UniProt Q0JBA9 1-250)
# Assay: protein-binding microarray (RPBM); PBS, 2% BSA, 51.3 ng/ul salmon testes DNA, 50 uM zinc acetate, 200 nM TF, 25 C, 1 h; high values mean tight binding
# Details: protein: recombinant; tags: N-terminal polyhistidine and DsRed monomer fusion (pET32a); label: CyDye5-dUTP incorporated in the synthesized complementary strand; 3' TTTTT single-stranded linker to array surface; dsDNA, one strand shown
# Outline: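 A custom Agilent array was converted to double-stranded form by primer extension with Cy5-dUTP and blocked with 2% BSA. Protein at 200 nM in PBS with 2% BSA, salmon testes DNA and 50 µM zinc acetate was applied for 1 h at 25 °C, followed by washing. The proteins were polyhistidine–DsRed N-terminal fusions of transcription factors, expressed in E. coli BL21-CodonPlus and Ni–NTA-purified. The binding signal is per-feature fluorescence intensity (arbitrary units) from an Axon 4000B scanner.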
row,Sequence,binding signal
1,GATTTAGATTCGCCTTTTTGCCCGTTCATTGTTTCAGTTACGGAGTCACCTAGTGCAG,12600 fluorescence intensity (a.u.)
2,GGCCGCCCTATCCCACTTTCGCCCAGCAACCAAACAACCTCGGAGTCACCTAGTGCAG,8300 fluorescence intensity (a.u.)
3,TGATCCGACTGCATCCGCCCGTTTTCACCCCTACTTGCAACGGAGTCACCTAGTGCAG,8700 fluorescence intensity (a.u.)
4,TTTTTAGTACATGTTTGACCGTTCGTCTTATTCAAAAAATCGGAGTCACCTAGTGCAG,10700 fluorescence intensity (a.u.)
5,GATCGCGGCGAACGTTATCGTCGTCTGGCTCGTCTCGTCTCGGAGTCACCTAGTGCAG,8940 fluorescence intensity (a.u.)
6,ATATCTCACTTTGACTGCTTGTTGTTATCGTTCTTTTATACGGAGTCACCTAGTGCAG,12000 fluorescence intensity (a.u.)
7,GACGGAGGTCCAACCCTATGCCCGCTGGTGTCCACTGTCCCGGAGTCACCTAGTGCAG,8780 fluorescence intensity (a.u.)
8,TCGTTTTCCGCACGTACGAACTATTAAATGGTGTGTTTTTCGGAGTCACCTAGTGCAG,10100 fluorescence intensity (a.u.)
9,TCCATCCATCTCGCTGTCCTGCACGTTTAGACGTTTACTTCGGAGTCACCTAGTGCAG,12200 fluorescence intensity (a.u.)
10,AGTTTTTTTTTCAGCTTTTTGGTTTCTTTTGCTGTTGTTTCGGAGTCACCTAGTGCAG,10300 fluorescence intensity (a.u.)
11,TGCCTGGCACCGTCCCCATCGCCGGCCGCCTCCGCCTCCGCGGAGTCACCTAGTGCAG,11300 fluorescence intensity (a.u.)
12,ATATGCTCATAGGGGTAGGGTTTGCGTGCGTGTGTTTATACGGAGTCACCTAGTGCAG,9250 fluorescence intensity (a.u.)
13,ACCCGCACCTCCCTGGGCCCCACCTGTCATCCACCATTCCCGGAGTCACCTAGTGCAG,9760 fluorescence intensity (a.u.)
14,TGTATGCAACTATGCATGTAGTGTTTGATTTGCCTCTCTTCGGAGTCACCTAGTGCAG,9610 fluorescence intensity (a.u.)
15,AAGGGTTATCGACCTACGCCTGCTGGCCCTTTTCGGCTTTCGGAGTCACCTAGTGCAG,9300 fluorescence intensity (a.u.)
16,TGGTTGGGTGGATGGATGGATCGCGTCGGTTGCGCGCAAACGGAGTCACCTAGTGCAG,12900 fluorescence intensity (a.u.)
17,TTCCTTCCGCCGCATGCCCCGCTCCGCCGGTCATCCGCTTCGGAGTCACCTAGTGCAG,8510 fluorescence intensity (a.u.)
18,GGGCTTAAATACGGACAATATTCGTCTATACGGGCTTTTGCGGAGTCACCTAGTGCAG,8780 fluorescence intensity (a.u.)
19,GGCCAGAATAACACTGGTGGTTTTAAGGGTAGGGGTTACACGGAGTCACCTAGTGCAG,9300 fluorescence intensity (a.u.)
20,GGCTGGTACTGGGCTACTAGTCATCTTCTGCCTCTTCCTCCGGAGTCACCTAGTGCAG,8300 fluorescence intensity (a.u.)
21,CTAGATTCTACAGTGTGCAGGGCGGGTGAAGACGTAACCACGGAGTCACCTAGTGCAG,8160 fluorescence intensity (a.u.)

row,Sequence,binding signal
1,GATTTTTCTTTTCCCGTTTCTTGAATTCATGGTCTCAGATCGGAGTCACCTAGTGCAG,8980 fluorescence intensity (a.u.)
2,ACCCACCATCGAAATGGTCCAGGTCCATTTCGTCCATCCCCGGAGTCACCTAGTGCAG,9230 fluorescence intensity (a.u.)
3,ACGCTCTCGGTCTCGGTCTCTCGCTTTTTACCACACTACTCGGAGTCACCTAGTGCAG,8420 fluorescence intensity (a.u.)
4,AACAACAGAGTAGGGGTGGGCATAAAAACCGTGAACCGAACGGAGTCACCTAGTGCAG,8970 fluorescence intensity (a.u.)
5,ACCACCTGACCTCCCCTGCTACTAGCACCCCGACTTTTTTCGGAGTCACCTAGTGCAG,9110 fluorescence intensity (a.u.)
6,ACACTGACCCTGACCCGAAGTCAATCTTTCAATGTTTCTTCGGAGTCACCTAGTGCAG,8160 fluorescence intensity (a.u.)
7,TGCAGCCCAACTCGTCGTCCACCTCACACTCGCCGCAGCCCGGAGTCACCTAGTGCAG,10600 fluorescence intensity (a.u.)
8,GTGGGCCAATGTTAGCTGGTGGTTGGGAGTTGGGGAGGAGCGGAGTCACCTAGTGCAG,13000 fluorescence intensity (a.u.)
9,AGGGGTCCTTAATGTTCGTGGGATCAAAGGGTCAAAGTGACGGAGTCACCTAGTGCAG,11100 fluorescence intensity (a.u.)
10,TCACACAGGCATCGATTTACAATATTTACTGGAATGTTTACGGAGTCACCTAGTGCAG,8630 fluorescence intensity (a.u.)
11,AAGTGTACATTCTATATCATATGTTTTTTTTATTTCTCTACGGAGTCACCTAGTGCAG,9890 fluorescence intensity (a.u.)
12,GTCCGCCCCTGCTTCCAGATTATTACTATGGCTTTGACAACGGAGTCACCTAGTGCAG,8360 fluorescence intensity (a.u.)
13,AGTACCTAACTGATCAACAGCCAGCCATATACTGCTACCACGGAGTCACCTAGTGCAG,9130 fluorescence intensity (a.u.)
14,CGTATCTGCTCTGTTTTTCATCTCCTGTCATTTGTCTAAACGGAGTCACCTAGTGCAG,18500 fluorescence intensity (a.u.)
15,TCACCTTCAGATTTTGTTCTCGTCGATTAATTTCCCTGGTCGGAGTCACCTAGTGCAG,11300 fluorescence intensity (a.u.)
16,CAATATGGAGTATATAGGTAGTTAGTGGTAGTAAGTAGTTCGGAGTCACCTAGTGCAG,8780 fluorescence intensity (a.u.)
17,TCACACACACGAGGAAATTATTCATTACGCGTATATATACCGGAGTCACCTAGTGCAG,8800 fluorescence intensity (a.u.)
18,ATCGGTTATGTCAGGGTTATGGGTGCTTCCAAAAGAAAAACGGAGTCACCTAGTGCAG,9720 fluorescence intensity (a.u.)
19,CTCTTGATTTTCAGATAAGTTTGACCATTCATCTTATTAACGGAGTCACCTAGTGCAG,8140 fluorescence intensity (a.u.)
20,AGTCATCACCCTTCTCTTTTTTGTTTTGTGTGATGCTAATCGGAGTCACCTAGTGCAG,11600 fluorescence intensity (a.u.)
21,GACAACTCCACACACTAACTCTCTCTCCTTGTTGCTCCGACGGAGTCACCTAGTGCAG,8520 fluorescence intensity (a.u.)

row,Sequence,binding signal
1,AGAAGATGTGCTAATTGATTTTTGTTTTGTTTTGTGAAATCGGAGTCACCTAGTGCAG,8260 fluorescence intensity (a.u.)
2,GCGGGTCTCTCCCACGTCCATCGCCCGTCACCATCCGCATCGGAGTCACCTAGTGCAG,8530 fluorescence intensity (a.u.)
3,ACAAACATTTGCCACTCCGCGCCACGTCACGCTAACTGACCGGAGTCACCTAGTGCAG,9810 fluorescence intensity (a.u.)
4,CTCGCCTCTAGGGTTCCGCCGTTTTCCGCGGCGCGCCACCCGGAGTCACCTAGTGCAG,9410 fluorescence intensity (a.u.)
5,GTTAGCTCTAGATCTCAAATTAATGACTACCCCTGTTTTTCGGAGTCACCTAGTGCAG,8700 fluorescence intensity (a.u.)
6,CTACTATTGCGTTGTTTTATTTTGGCCAGTTTATTTCAAACGGAGTCACCTAGTGCAG,13400 fluorescence intensity (a.u.)
7,GAAGGGCGGGAAGTCGGTGTGGGGAGGGTAGGATGAGCTCCGGAGTCACCTAGTGCAG,16100 fluorescence intensity (a.u.)
8,GTCAGGCACAACCCTTTTTATCAATTCATGCTGCTCTATGCGGAGTCACCTAGTGCAG,8400 fluorescence intensity (a.u.)
9,GCTTTCCACGACTCTCTTTCGCCGCAGTCTCTGCTTCCGTCGGAGTCACCTAGTGCAG,11600 fluorescence intensity (a.u.)
10,AGAAAATTCAGTTGATCTCTCTCTCTCTCTATCTCTCTCTCGGAGTCACCTAGTGCAG,9010 fluorescence intensity (a.u.)
11,CCTTGCAGCCACTTTGCTTCAGATTTTTGTGTCTTTTGCTCGGAGTCACCTAGTGCAG,9700 fluorescence intensity (a.u.)
12,AACTTATTAGCCGGTTTTCTTACAACGTTGACCGAAAGTCCGGAGTCACCTAGTGCAG,14000 fluorescence intensity (a.u.)
13,TTCTTTTGTAGGCATACTACATCCCTTGCTACTTATGTGACGGAGTCACCTAGTGCAG,8030 fluorescence intensity (a.u.)
14,TGTCATCTTTCATGAAACAGTTTTTGACTGAGTTCGTTGACGGAGTCACCTAGTGCAG,9350 fluorescence intensity (a.u.)
15,TCTTTCTTGTTTTATGTGCTTTACATAATCTTAATCTTCACGGAGTCACCTAGTGCAG,8960 fluorescence intensity (a.u.)
16,CGGTTGCTTGGGTGCTTGTATGCTGGGTTTGTGCGATTCGCGGAGTCACCTAGTGCAG,12700 fluorescence intensity (a.u.)
17,ACAACTCACTCTCTTCATTTTCCATTCTCGTGCTTTTCAACGGAGTCACCTAGTGCAG,16600 fluorescence intensity (a.u.)
18,TGCCAATCTCATGTTTTTGTGTCAAAACCATTGTGCTAGACGGAGTCACCTAGTGCAG,10000 fluorescence intensity (a.u.)
19,AGACGGCCTCCGCGCCGCTATCTCATCTTCCCGTTCTCTCCGGAGTCACCTAGTGCAG,11000 fluorescence intensity (a.u.)
20,AAGTATGATACCGATTTCAACCGTTTTCACCCCTACCCTTCGGAGTCACCTAGTGCAG,9600 fluorescence intensity (a.u.)
21,TTTTCTGTCGATCGGAATTGGTCATCTTTGGTTGGTTCAGCGGAGTCACCTAGTGCAG,9690 fluorescence intensity (a.u.)

# 3 records drawn at random from those above, as already listed:
row,Sequence,binding signal
21,TTTTCTGTCGATCGGAATTGGTCATCTTTGGTTGGTTCAGCGGAGTCACCTAGTGCAG,9690 fluorescence intensity (a.u.)
19,AGACGGCCTCCGCGCCGCTATCTCATCTTCCCGTTCTCTCCGGAGTCACCTAGTGCAG,11000 fluorescence intensity (a.u.)
16,CGGTTGCTTGGGTGCTTGTATGCTGGGTTTGTGCGATTCGCGGAGTCACCTAGTGCAG,12700 fluorescence intensity (a.u.)

# The listing continues.

row,Sequence,binding signal
1,TTTTTTTTCCTTTGTGCTTGCAGGTCAGAACATCCGTAAGCGGAGTCACCTAGTGCAG,10100 fluorescence intensity (a.u.)
2,GAATCTTTGTCGACTGATAGTGTTGAGCTCTGGTTGGGTTCGGAGTCACCTAGTGCAG,9690 fluorescence intensity (a.u.)
3,GTTTGGCCATGGTGCCGTCGTTGTCTCGTTGATGCTTAGTCGGAGTCACCTAGTGCAG,10700 fluorescence intensity (a.u.)
4,CTTCAATTGGCATCATGGATGATTTTTGTGCAGTCTATTCCGGAGTCACCTAGTGCAG,8110 fluorescence intensity (a.u.)
5,TTCTTGAATTGCTGGAGAGGGGTGGGGAAGAAAGATCGGGCGGAGTCACCTAGTGCAG,9830 fluorescence intensity (a.u.)
6,ACTACACCACTGTTCTTGTGGCTTTCAACGCTAGTATTGACGGAGTCACCTAGTGCAG,9710 fluorescence intensity (a.u.)
7,TTGTACACTTATGATTTCCTATTTTTGCATATGATTTTGTCGGAGTCACCTAGTGCAG,8050 fluorescence intensity (a.u.)
8,TGGGTTGTGTCTCATTTTTACTAATTTTTTTTAGTACAGACGGAGTCACCTAGTGCAG,10700 fluorescence intensity (a.u.)
9,CTCCATCTCGCTCGGTCCCCGTCCCCAACCTGCAAACCCTCGGAGTCACCTAGTGCAG,9480 fluorescence intensity (a.u.)
10,CCGCTCTCCACCACTCCGCCTGCCTGCATGTCCACCGCCGCGGAGTCACCTAGTGCAG,8410 fluorescence intensity (a.u.)
11,ACATGCAAACACTCCAGTTATACACTTGAACTGCTTTGAACGGAGTCACCTAGTGCAG,9920 fluorescence intensity (a.u.)
12,ACTGCTCAAGATTTGCCTTCCAGTTTACTCCATGATGACCCGGAGTCACCTAGTGCAG,9080 fluorescence intensity (a.u.)
13,GTTTGGTCTGTTTCTCTCAGGCCTTCTTTTTTTATTAGCCCGGAGTCACCTAGTGCAG,10200 fluorescence intensity (a.u.)
14,ACGAATTCCTCAACCTTATCGATATTTTTCTCTCCTTTTTCGGAGTCACCTAGTGCAG,10100 fluorescence intensity (a.u.)
15,AAGTGTTTCTTGGTGTATAGTATGTTTTGTTTGTTGCCATCGGAGTCACCTAGTGCAG,8040 fluorescence intensity (a.u.)
16,GTGGGAGAGTGAGAGGGGCTTCGGTTTTTTTTTCTTTTTCCGGAGTCACCTAGTGCAG,11200 fluorescence intensity (a.u.)
17,CTATTTAGTCCTTGGTTAGTTCCCAATTTTTTCTTTAAACCGGAGTCACCTAGTGCAG,9700 fluorescence intensity (a.u.)
18,CTCTGTTTGCCTTCTGATTTTTATTACTAGTAGCTTAATTCGGAGTCACCTAGTGCAG,8860 fluorescence intensity (a.u.)
19,CAAATCTGCACTTTCTACCATTTTTTCTCTGTGATGTGGCCGGAGTCACCTAGTGCAG,8800 fluorescence intensity (a.u.)
20,CCCGTTTATGTCATCTTATTGTACCCGCTCCAAACGCGTACGGAGTCACCTAGTGCAG,10000 fluorescence intensity (a.u.)
21,GCCATCTAGTTCCTCCTACCACCACGTCCTCTTTTCCTGCCGGAGTCACCTAGTGCAG,8430 fluorescence intensity (a.u.)
